Assay results published in PMC11191887, “Abstracts From the First Annual Research Day Hosted by the Michigan State University College of Osteopathic Medicine, Novi, Michigan, May 15, 2023” (Spartan Medical Research Journal, 2024).
Results are given in words; binding and its absence hold for the method and conditions named.

Amino acid sequences for entries named in this document (tags omitted).
UniProt Q04206: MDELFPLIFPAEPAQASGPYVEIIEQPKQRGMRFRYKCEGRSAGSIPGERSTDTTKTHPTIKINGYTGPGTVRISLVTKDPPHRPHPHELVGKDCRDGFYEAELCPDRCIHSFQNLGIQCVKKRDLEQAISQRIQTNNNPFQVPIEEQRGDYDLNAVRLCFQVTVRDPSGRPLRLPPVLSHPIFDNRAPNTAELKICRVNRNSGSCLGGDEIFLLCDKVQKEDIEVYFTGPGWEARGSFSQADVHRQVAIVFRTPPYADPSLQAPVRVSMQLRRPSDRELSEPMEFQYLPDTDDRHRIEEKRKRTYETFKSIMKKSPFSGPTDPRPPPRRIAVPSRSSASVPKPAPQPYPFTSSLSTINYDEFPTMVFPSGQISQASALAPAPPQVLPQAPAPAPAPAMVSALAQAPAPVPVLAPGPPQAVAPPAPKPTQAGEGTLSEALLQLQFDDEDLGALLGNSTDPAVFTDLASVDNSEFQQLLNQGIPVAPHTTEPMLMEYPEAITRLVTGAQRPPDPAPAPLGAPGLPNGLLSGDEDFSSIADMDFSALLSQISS

Target: RelA subunit of NF-κB (UniProt Q04206)
Assay: fluorescence polarisation + SEC + native gel or EMSA; recombinant biochemical techniques; conditions not given; both purified

binding: no binding
B1: Pirin (protein, UniProt O00625 1-290)
chain: MGSSKKVTLSVLSREQSEGVGARVRRSIGRPELKNLDPFLLFDEFKGGRPGGFPDHPHRGFETVSYLLEGGSMAHEDFCGHTGKMNPGDLQWMTAGRGILHAEMPCSEEPAHGLQLWVNLRSSEKMVEPQYQELKSEEIPKPSKDGVTVAVISGEALGIKSKVYTRTPTLYLDFKLDPGAKHSQPIPKGWTSFIYTISGDVYIGPDDAQQKIEPHHTAVLGEGDSVQVENKDPKRSHFVLIAGEPLREPVIQHGPFVMNTNEEISQAILDFRNAKNGFERAKTWKSKIGN
